The source of these data is doi:10.1101/2021.09.29.461190.

By UniProt entry, the sequences of proteins in these tests, tags left out.
UniProt Q9LS94: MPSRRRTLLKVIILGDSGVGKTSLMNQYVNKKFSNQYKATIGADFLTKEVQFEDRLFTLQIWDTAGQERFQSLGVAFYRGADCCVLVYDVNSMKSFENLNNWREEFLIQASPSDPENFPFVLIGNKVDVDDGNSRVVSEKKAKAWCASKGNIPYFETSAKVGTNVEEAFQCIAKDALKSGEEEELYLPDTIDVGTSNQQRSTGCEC

Results are given in words; binding and its absence hold for the method and conditions named. Binding seen in cells or lysates may run through a third protein. Here binding means that the protein was enriched with, or labelled near, the bait; the list need not be complete. For part of these data: A no says only that the protein was not detected with the bait. For part of these data: Where a sequence is shown, tags or fusion partners need not be part of it.

Common to all, as to experiment: affinity purification with mass spectrometry
Assay [1] deals with T1, YFP-RABA5c (Arabidopsis thaliana) (UniProt P28187).
T1 sequence: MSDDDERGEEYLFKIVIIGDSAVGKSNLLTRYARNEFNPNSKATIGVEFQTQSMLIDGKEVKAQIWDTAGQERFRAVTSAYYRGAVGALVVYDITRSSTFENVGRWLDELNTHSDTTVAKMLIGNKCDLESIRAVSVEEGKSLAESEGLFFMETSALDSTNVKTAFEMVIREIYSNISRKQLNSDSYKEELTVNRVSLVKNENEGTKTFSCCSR

The target in assay [2] is T2, YFP-RABA2a (Arabidopsis thaliana) (UniProt O04486).
T2 sequence: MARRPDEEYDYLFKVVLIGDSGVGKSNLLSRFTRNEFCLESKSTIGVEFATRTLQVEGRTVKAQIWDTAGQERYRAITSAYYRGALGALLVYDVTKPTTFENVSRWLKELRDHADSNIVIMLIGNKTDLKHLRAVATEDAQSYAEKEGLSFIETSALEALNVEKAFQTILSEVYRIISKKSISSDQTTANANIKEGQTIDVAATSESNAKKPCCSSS

The target of assay [3] is YFP-RABG3f (Arabidopsis thaliana) (UniProt Q9LS94).

B1: NET4B, endogenous in Arabidopsis roots (protein, UniProt Q84VY2 1-517)
chain: MASSTAQSKKQFKRSMTKKSHSWWWDSHNCPKNSKWLAENLEKMDDRVNHMLKLIEEDADSFAKKAQMYFQKRPELIQLVEEFYRMYRALAERYDQASGELQKNHTSEIQSQSSLEISSPTKEKLSRRQSSHKEEEDSSSLTDSGSDSDHSSANDEDGDEALIRRMAELELELQETKQKLLLQQESVDGDNNVDLLHKITTYEGELKEANEKMRMHEDEIANLKNQLQSFMSFDTEDHLGAEQKSVDLDKEDTKEDAVATKVLALEEELSIAKEKLQHFEKETYSLKNELEIGKAAEEKLKSLQHELELAQRDADTYINKLNAEKKEVLKLQERLAMVKTSLQDRDNEIRALKTAVSDAEQKIFPEKAQIKGEMSKMLEERSQLGEQLRELESHIRLIKEEKAETEEKLRGGTEKISGMRDESNVLREEIGKREEKIKETEKHMEELHMEQVRLRRRSSELTEEVERTRVSASEMAEQKREAIRQLCMSLDHYRDGYDRLWRVVAGHKSKRVVVLST
With B1, the binding result in assay [1] is recorded as “no binding”; in assay [2] it was “no binding”; in assay [3] it was “binds”.
